## Results of single-concentration screens

Chains of the proteins cited; added tags and fusions are not shown. Residues count along the entry.
UniProt P9WNZ1, whole entry: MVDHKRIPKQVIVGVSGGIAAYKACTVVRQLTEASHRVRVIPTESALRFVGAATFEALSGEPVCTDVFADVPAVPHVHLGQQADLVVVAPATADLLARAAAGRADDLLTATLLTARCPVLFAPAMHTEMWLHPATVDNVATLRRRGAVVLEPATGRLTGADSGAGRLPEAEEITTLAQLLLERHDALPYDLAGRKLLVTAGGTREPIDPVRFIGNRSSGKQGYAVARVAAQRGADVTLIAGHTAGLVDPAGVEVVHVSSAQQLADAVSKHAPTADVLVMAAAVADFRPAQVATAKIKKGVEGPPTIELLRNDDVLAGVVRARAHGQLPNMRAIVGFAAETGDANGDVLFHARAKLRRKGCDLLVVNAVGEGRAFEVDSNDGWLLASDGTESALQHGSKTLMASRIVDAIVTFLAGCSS
UniProt P9WFT3, whole entry: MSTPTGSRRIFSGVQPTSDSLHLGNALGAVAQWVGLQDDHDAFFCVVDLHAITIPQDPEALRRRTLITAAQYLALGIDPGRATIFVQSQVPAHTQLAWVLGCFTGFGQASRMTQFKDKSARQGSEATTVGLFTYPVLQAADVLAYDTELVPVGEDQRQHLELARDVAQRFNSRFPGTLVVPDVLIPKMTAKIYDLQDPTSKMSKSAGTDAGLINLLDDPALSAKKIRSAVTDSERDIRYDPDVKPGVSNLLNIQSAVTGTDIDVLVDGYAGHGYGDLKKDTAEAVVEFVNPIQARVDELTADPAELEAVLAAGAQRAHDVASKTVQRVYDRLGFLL
UniProt A4I591, 1-473: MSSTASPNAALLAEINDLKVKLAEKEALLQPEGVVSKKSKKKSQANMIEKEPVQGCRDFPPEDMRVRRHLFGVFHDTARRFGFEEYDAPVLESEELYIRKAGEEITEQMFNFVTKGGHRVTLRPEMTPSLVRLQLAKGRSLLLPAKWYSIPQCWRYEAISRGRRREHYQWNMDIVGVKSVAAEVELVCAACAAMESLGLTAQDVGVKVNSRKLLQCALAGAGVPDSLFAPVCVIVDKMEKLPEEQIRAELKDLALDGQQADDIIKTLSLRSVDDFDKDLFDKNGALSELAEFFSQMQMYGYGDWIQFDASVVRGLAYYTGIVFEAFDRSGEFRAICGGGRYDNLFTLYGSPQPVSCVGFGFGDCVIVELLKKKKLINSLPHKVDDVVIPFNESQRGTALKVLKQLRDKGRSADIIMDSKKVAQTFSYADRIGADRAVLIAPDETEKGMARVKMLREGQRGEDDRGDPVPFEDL

The values are deposited in ChEMBL (CHEMBL3988442, “University of Dundee, Small-Polar-MMV Screening Library” (2021)).

CoaBC: 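Enzyme assay of CoaBC with a phosphate dye (Biomol Green) read at 650 nm. Target: Coenzyme A biosynthesis protein CoaBC, Mycobacterium tuberculosis (UniProt P9WNZ1). Compounds at 30 µM. Higher reads as stronger inhibition, judged from the few compounds that gave an IC50. Most strong results did not repeat in a second test. Of about 67,000 compounds tested this way, about 40 (0.06%) reached 50% or more in at least one test.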
Toxoplasma: 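Assay of Toxoplasma gondii numbers, read through their beta-galactosidase reporter with a colour substrate. Compounds at 10 µM. Higher reads as fewer parasites (inferred from which compounds were picked for retests). Size under these conditions: about 67,000 compounds, about 260 of them at 50% or above in at least one test.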
Leishmania in macrophages: 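Cell assay of Leishmania donovani living inside macrophages; the read-out is not stated. Compounds at 30 µM. Higher reads as stronger inhibition (inferred: compounds with an IC50 in retests scored well above the rest). About 69,000 compounds were tested under these conditions; 1.5% (about 1,000) showed 50% or more at least once.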
MtTrpRS: 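Enzyme assay of tryptophanyl-tRNA synthetase; the read-out is not stated. Target: Tryptophan-tRNA ligase, Mycobacterium tuberculosis (UniProt P9WFT3). Tested at 10 µM. Higher most likely means stronger inhibition; the record gives no direction and few retests gave an IC50. Of about 65,000 compounds tested this way, about 64 (0.098%) reached 50% or more in at least one test.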
LiHisRS: 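Enzyme assay of histidyl-tRNA synthetase; the read-out is not stated. Target: Histidine-tRNA ligase, Leishmania infantum (UniProt A4I591). Concentration: 30 µM. The record gives no direction; compounds that gave an IC50 in retests scored well above the rest, so higher reads as stronger inhibition. The assay is labelled LdHisRS but filed under L. infantum. Of about 69,000 compounds tested this way, about 410 (0.6%) reached 50% or more in at least one test.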

Each number is a percent effect as filed. The controls that fix the scale are not given in the record; negative values are as filed. This is an unselected part of the compounds tested. Two or more numbers in one place are separate tests of the same structure; such repeats can differ widely. A dash means the value is not listed here; it may have been measured.

| structure | CoaBC | Toxoplasma | Leishmania in macrophages | MtTrpRS | LiHisRS |
|---|---|---|---|---|---|
| `c1cnnc(N2CCCC(NCc3ccncc3)C2)c1` (centres undefined) | -0.6479 | -0.579 | -22.85 | 1.221 | 13.22 |
| `CCC[C@H]1CN(c2nc(CO)cs2)C[C@@H]1NC(=O)C1(COC)CC1` | 12.46 | 20.33 | 29.44 | -1.161 | 22.34 |
| `O=C(N[C@@H]1CCN(C(=O)C2CCOCC2)C[C@H]1O)c1ccccn1` | -2.571 | 9.211 | 31.3 | 6.063 | 7.292 |
| `Cc1ccc(N2CCCC(NCc3nnc4n3CCCC4)C2=O)cc1` (centres undefined) | 3.325 | 8.015 | 13.72 | 3.224 | 5.505 |
| `Cc1cc2nc(SCC(=O)N3CCOCC3)n(CCC(C)C)c(=O)c2[nH]1` | 0.5063 | -23.61 | 0.176 & 14.46 | 2.249 | 10.53 |
| `O=C(O)C(F)(F)F.O=C(c1cnccn1)N1CCCC2(CCN(c3ccccn3)C2)C1` (centres undefined) | - | 1.553 | 28.25 | - | - |
| `CC(C)c1n[nH]c(C2CN(C(=O)c3cc(C4CC4)on3)CCO2)n1` (centres undefined) | 5.138 | -4.336 | -7.233 | -5.768 | 4.11 |
| `CCS(=O)(=O)CCNC(=O)NCc1ccccc1-n1cccn1` | 6.876 | 3.583 | 18.11 | -5.913 | 14.91 |
| `CCC(NC(=O)c1cccc2[nH]ccc12)C(=O)N1CCOCC1` (centres undefined) | 0 | 6.208 | 22.4 | -2.621 | 11.67 |
| `CCN(C(=O)CN(CC(N)=O)C(C)C)C1=CCCC1` | 6.375 | 1.438 | -15.97 | 3.534 | 16.44 |
| `Cn1ccnc1C(=O)N1CCC2(CC1)CC(Oc1cccnc1)CO2.O=C(O)C(F)(F)F` (centres undefined) | - | 2.358 | 28.76 | - | - |
| `O=C(O)C(F)(F)F.[H][C@@]12COC[C@]1([H])[C@H](OCc1csc(C)n1)CN2Cc1ccsc1` | - | 0.5917 | 15.5 | - | - |
| `O=C(O)C(F)(F)F.[H][C@@]12CCN(c3ncccn3)C[C@@]1([H])O[C@@H](C(=O)NCCOC)C2` | - | -0.9655 | -1.671 | - | - |
| `Cc1nnc2n1CCN(C(=O)C(OC1CCCC1)c1ccccc1)C2` (centres undefined) | 4.147 | 6.998 | 5.78 | -2.621 | 1.667 |
| `O=C(NCc1nnc2n1CCC2)NCC1(c2cccc(F)c2)CC1` | -0.6588 | -9.492 | 8.289 | 0.3393 | 2.74 |
| `FC1(F)CCN(c2ccccc2)CC12CCN(c1ncccn1)C2` (centres undefined) | -2.083 | -17.5 | -4.71 | -0.9168 | 21.37 |
| `CN(Cc1cc(Cl)c2c(c1)OCO2)Cc1cscn1` | 2.088 | -16.08 | 5.641 | 5.008 | 10.85 |
| `CN(C)CCOCc1nnc2n1CCN(Cc1ccsc1)C2` | -44.88 | - | - | -7.502 | 10 |
| `O=C(c1cccnc1)N1CCN(c2ccc(-n3cccc3)nn2)CC1` | -1.38 | -10.31 | 23.31 | 0.552 | 15.25 |
| `O=C1CC2(CCN(C(=O)c3ccccn3)CC2)Oc2c(Br)cc(Br)cc21` | 5.825 | 9.492 | 9.531 | - | 31.68 |
| `Cc1cccn2cc(CNS(=O)(=O)N3CCOCC3)nc12` | 0.6289 | -2.342 | -21.02 | -2.313 | 14.16 |
| `COc1ncc(CN2C[C@@H]3C[C@@H](O)CN3C[C@@H]2Cc2ccccc2)cn1` | -3.653 | - | - | 7.542 | 12.08 |
| `CCNC(=O)COc1cc(CC)c2c(C)nn(-c3ccc(C)cc3)c2n1` | -1.713 | -2.07 | 3.271 | -1.866 | 5.479 |
| `Cn1ccc(-c2cc(C(=O)N3CCC(C(N)=O)CC3)c3ccccn23)n1` | -10.12 | -8.354 | 23.65 | - | -122.7 |
| `CCN1CCC12CCN(C(=O)c1cc(C)on1)C2` (centres undefined) | 1.018 | - | - | -4.123 | 21.36 |
| `Cn1cc(CN2C[C@@H]3CN(Cc4ccoc4)CCO[C@@H]3C2)cn1` | 1.394 | - | - | -0.3307 | 20.39 |
| `CN(C)CCN1CC[C@H]2[C@@H]1CCN2Cc1ccc2c(c1)OCO2` | 1.781 | - | - | 4.446 | 19.42 |
| `O=C(O)C(F)(F)F.c1cnc(NC2COC3(CCN(Cc4cccs4)CC3)C2)nc1` (centres undefined) | - | 7.126 | -71.32 | - | - |
| `O=C(O)C(F)(F)F.[H][C@@]12COC[C@]1([H])[C@@H](OCC(=O)N(C)C)CN2Cc1nccs1` | - | -3.682 | 34.07 | - | - |
| `Cc1cc(-c2cc(F)ccc2C(=O)O)nc(C2CCCN(C)C2)n1` (centres undefined) | 0.9685 | 17.66 | 5.829 & -7.664 | - | 8.247 |

Once more, the final 2:

- O=C(O)C(F)(F)F.[H][C@@]12COC[C@]1([H])[C@@H](OCC(=O)N(C)C)CN2Cc1nccs1 : Toxoplasma: -3.682%; Leishmania in macrophages: 34.07%
- Cc1cc(-c2cc(F)ccc2C(=O)O)nc(C2CCCN(C)C2)n1 (centres undefined) : CoaBC: 0.9685%; Toxoplasma: 17.66%; Leishmania in macrophages: 5.829% & -7.664%; LiHisRS: 8.247%